Test results published in publication doi:10.1101/2025.06.02.657351.
Results are given in words; binding and its absence hold for the method and conditions named. In cells and extracts the contact can be indirect. Some entries that bind do so weakly or less than the wild type. For some of these results: Where a sequence is shown, tags or fusion partners need not be part of it.

T1: BAK (human (endogenous in HeLa)) (UniProt Q16611)
T1 sequence: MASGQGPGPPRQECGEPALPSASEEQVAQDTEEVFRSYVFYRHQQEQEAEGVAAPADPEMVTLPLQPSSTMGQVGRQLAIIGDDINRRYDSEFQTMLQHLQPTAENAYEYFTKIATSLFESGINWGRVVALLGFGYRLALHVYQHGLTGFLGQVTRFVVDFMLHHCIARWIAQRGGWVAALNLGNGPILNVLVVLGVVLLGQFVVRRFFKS

B1: OmpA from Chlamydia trachomatis (Ctr), expressed in HeLa cells (HeLa OmpA expressing cells of Fig. 2A) (protein, UniProt P06597 23-394)
chain: LPVGNPAEPSLMIDGILWEGFGGDPCDPCTTWCDAISMRMGYYGDFVFDRVLQTDVNKEFQMGAKPTTATGNAAAPSTCTARENPAYGRHMQDAEMFTNAAYMALNIWDRFDVFCTLGATSGYLKGNSASFNLVGLFGDNENHATVSDSKLVPNMSLDQSVVELYTDTTFAWSAGARAALWECGCATLGASFQYAQSKPKVEELNVLCNAAEFTINKPKGYVGQEFPLDLKAGTDGVTGTKDASIDYHEWQASLALSYRLNMFTPYIGVKWSRASFDADTIRIAQPKSATTVFDVTTLNPTIAGAGDVKASAEGQLGDTMQIVSLQLNKMKSRKSCGIAVGTTIVDADKYAVTVETRLIDERAAHVNAQFRF
B2: OmpA from Chlamydia trachomatis, untagged, tetracycline/AHT-inducible in HeLa cells (Tet-OmpA HeLa cells) (protein, UniProt P06597 23-394)
chain: B1 chain
B3: OmpA of Chlamydia trachomatis serovar L2, made by the bacteria during infection of HeLa cells (protein, UniProt P06597 23-394)
chain: B1 chain

How the values were obtained:
[1] = target: T1, BAK (human (endogenous in HeLa)); test: co-IP
[2] = target: T1, BAK (human (endogenous in HeLa)); test: proximity ligation

Row | Binder | binding [1] | binding [2]
1 | B1 | binds | 
2 | B2 |  | binds
3 | B3 | binds | binds
